Experimental data: PubChem BioAssay AID2685 (National Center for Advancing Translational Sciences (NCATS), 2010)
Some of the results follow. Further columns of the screen follow, without active or inactive calls. The list favours compounds with an active or inconclusive main result. Words in brackets tell the shape of the fitted curve; partial curves, single points and poor fits give uncertain potencies.

Assay: qHTS Assay for Lipid Storage Modulators in Drosophila S3 Cells;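 on cell number change: cells counted by Cell Tracker Red CMTPX staining in the red channel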
Settings: BODIPY lipid droplet fluorescence, 18-24 h; for cell number change: measured here: cell count max response, cells fed with added oleic acid
Procedure, shortened: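 Laser-scanning cytometry quantifies lipid droplet accumulation (500–530 nm total intensity; droplet/cell object ratio) in oleic acid-fed (400 uM added) Drosophila S3 cells treated with a concentration series. 20 uM Triacsin C defined 100% inhibition.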

[1] = measured here: lipid fluorescence (Fed channel) AC50, cells fed with added oleic acid
[2] = measured here: cell number channel AC50, cells fed with added oleic acid

| Compound | cell number change | AC50 [1] | AC50 [2] |
| --- | --- | --- | --- |
| COC(=O)C1=C(C)NC(=O)NC1c1ccc2ccccc2c1 (centres undefined) | 13.7% | 6.51 µM [rising, single point] |  |
| O=C1CC(c2ccccc2)n2nc(NC(=O)c3cccs3)nc2N1 (centres undefined) | 4.99% |  |  |
| O=[N+]([O-])c1ccc(CNc2ccc(F)cc2)s1 | -4.4% | 13 µM [falling, partial curve, poor fit] |  |
| CC(=O)c1ccc(N2CCN(C(=O)Nc3ccc(C)cc3)CC2)cc1 | 10.4% | 0.517 µM [rising, full curve] | 0.326 µM [rising, full curve] |
| Cc1cnnc2c1-c1nonc1CC2 | -94.3% | 29.1 µM [falling, single point] | 0.411 µM [falling, single point] |
| Cc1sc2ncnc(SCC(=O)N3CCN(C(=O)c4ccco4)CC3)c2c1C | -18.2% |  |  |
| c1ccc2[nH]c(SCc3cscn3)nc2c1 | 121% | 23.1 µM [rising, partial curve] | 20.6 µM [rising, partial curve] |
| COc1cc(C(=O)Nc2ccc3nc4n(c(=O)c3c2)CCCCC4)cc(OC)c1OC |  | 3.26 µM [falling, single point] |  |
| CS(=O)(=O)c1ccc(Cl)c(NC(=O)COC(=O)C23CC4CC(CC(C4)C2)C3)c1 | -10.4% | 0.092 µM [rising, full curve, poor fit] |  |
| Cc1cc(NC(=O)COC(=O)CNS(=O)(=O)c2ccc(C)c(C)c2)no1 | -110% | 29.1 µM [falling, single point] | 29.1 µM [falling, single point] |
| COc1ccc(OC)c(CNC(=O)C2CCCN(C(=O)N(C)C)C2)c1 (centres undefined) | 11.1% | 1.16 µM [falling, single point] |  |
| Nc1nc2cc(S(=O)(=O)NC3=NCCCCC3)ccc2s1 | -11.6% | 2.91 µM [rising, single point] |  |
| CCOC(=O)c1ccoc1CSCc1ccc(C(=O)OC)o1 | -8.5% |  | 0.00517 µM [falling, full curve, poor fit] |
| COc1ccc(OC)c(NC(=O)CSc2nnnn2C2CCCC2)c1 | -0.403% | 20.6 µM [falling, single point] |  |
| Cc1cc(OCC(=O)OC(C)C(=O)Nc2ccc(N3CCOCC3)cc2)ccc1Cl (centres undefined) | 9.36% | 1.16 µM [rising, full curve] |  |
| O=C(NC(=S)NCC1CCCO1)c1ccco1 (centres undefined) |  | 0.058 µM [rising, full curve, poor fit] | 2.06 µM [rising, single point] |
| Cc1ccc(S(=O)(=O)N2[C@@H](c3ccccc3)C(C(=O)O)=CC[C@H]2c2cccs2)cc1 | -4.15% | 29.1 µM [rising, single point] |  |
| COc1ccccc1-n1cnc2cc(NCc3ccco3)ccc21 | -31.3% |  | 20.6 µM [falling, single point] |
| Cc1nn(C)c(C(=O)N/N=C/c2ccccc2)c1[N+](=O)[O-] | -41% | 0.731 µM [falling, full curve] | 4.61 µM [falling, single point] |

2 compounds from above, limited to AC50 [2] and cell number change:
Compound	AC50 [2]	cell number change
Nc1nc2cc(S(=O)(=O)NC3=NCCCCC3)ccc2s1		-11.6%
CCOC(=O)c1ccoc1CSCc1ccc(C(=O)OC)o1	0.00517 µM [falling, full curve, poor fit]	-8.5%

Following part.

| Compound | cell number change | AC50 [1] | AC50 [2] |
| --- | --- | --- | --- |
| CCC(=O)N1CCCC(C(=O)c2ccc(-c3ccccc3)cc2)C1 (centres undefined) | -11.5% | 6.51 µM [rising, single point] |  |
| Cc1c(C(=O)Nc2ccccn2)sc2nc3n(c(=O)c12)CCC3 | -44.5% | 2.91 µM [falling, full curve] | 2.06 µM [falling, full curve, poor fit] |
| CC(C)NC(=O)CC(=O)NN=C1CCCCC1 | 10.8% | 0.13 µM [rising, full curve, poor fit] |  |
| COc1cc(CN2CCCC(CCC(=O)NCc3ccc(C)o3)C2)cc2c1OCO2 (centres undefined) | -1.86% | 3.26 µM [rising, single point] |  |
| O=S(=O)(Nc1cccc(S(=O)(=O)N2CCCC2)c1)c1ccc(Cl)s1 | 23.8% |  |  |
| CC(=O)c1ccccc1NC(=O)COC(=O)CN1C(=O)C2CCCCC2C1=O (centres undefined) | -11.8% | 3.66 µM [rising, partial curve] |  |
| O=C(Nc1ccnn1C1CCN(C/C=C/c2ccccc2)CC1)c1ccccc1 | 5.45% | 6.51 µM [falling, single point] | 3.66 µM [rising, single point] |
| CCOC(=O)N1CCN(C(=O)C(C)SCc2ccccc2)CC1 (centres undefined) | 2.59% |  |  |
| CCCCSc1nc2c(cnn2-c2ccc(C)c(C)c2)c(=O)[nH]1 | 6.94% | 1.84 µM [falling, full curve, poor fit] |  |
| CC(C)n1c(NCc2ccc(Cl)cc2)nc2ccccc21 |  | 29.1 µM [rising, single point] |  |
| O=S(=O)(Nc1ccc2c(c1)OCCO2)c1ccc2oc3ccccc3c2c1 | 8.63% | 1.84 µM [rising, partial curve] |  |
| COc1ccc2cc3cc(C(=O)N4CCCCCC4)oc3nc2c1 | 6.73% |  |  |
| COc1ccccc1C(=O)NC(=S)NC12CC3CC(CC(C3)C1)C2 | 35.7% |  | 0.259 µM [rising, full curve] |
| O=C(C1COc2ccccc2O1)N1CCOCC1 (centres undefined) | -22.5% | 29.1 µM [falling, single point] | 3.66 µM [falling, full curve, poor fit] |
| O=C(Cc1n[nH]c(=O)c2ccccc12)NCc1ccc(Cl)cc1 | -49.9% | 29.1 µM [falling, single point] | 29.1 µM [falling, single point] |
| COc1ccc(C(=O)Oc2cc(OC)cc(OC)c2C(C)=O)cc1 | 20.8% |  |  |
| O=c1[nH][nH]cc1C=Nc1cc(Cl)ccc1O | -24.2% | 0.146 µM [falling, full curve, poor fit] | 0.146 µM [falling, full curve, poor fit] |
| COc1cccc(Cn2nnc(C(=O)NCc3ccccc3Cl)c2N)c1 | -12.5% |  | 0.00517 µM [falling, full curve, poor fit] |
| CN(CC(=O)Nc1cccc(F)c1)C(=O)c1cccc(S(=O)(=O)N2CC3(C)CC2CC(C)(C)C3)c1 (centres undefined) | 100% | 14.6 µM [falling, partial curve] | 4.11 µM [rising, full curve] |
